Laboratory results reported in article PMC4899616.

Target: T1, BRAT1-3xFlag (Bromodomain and ATPase domain-containing protein 1, AT1G05910) (Arabidopsis thaliana) (UniProt F4IAE9)
T1 sequence: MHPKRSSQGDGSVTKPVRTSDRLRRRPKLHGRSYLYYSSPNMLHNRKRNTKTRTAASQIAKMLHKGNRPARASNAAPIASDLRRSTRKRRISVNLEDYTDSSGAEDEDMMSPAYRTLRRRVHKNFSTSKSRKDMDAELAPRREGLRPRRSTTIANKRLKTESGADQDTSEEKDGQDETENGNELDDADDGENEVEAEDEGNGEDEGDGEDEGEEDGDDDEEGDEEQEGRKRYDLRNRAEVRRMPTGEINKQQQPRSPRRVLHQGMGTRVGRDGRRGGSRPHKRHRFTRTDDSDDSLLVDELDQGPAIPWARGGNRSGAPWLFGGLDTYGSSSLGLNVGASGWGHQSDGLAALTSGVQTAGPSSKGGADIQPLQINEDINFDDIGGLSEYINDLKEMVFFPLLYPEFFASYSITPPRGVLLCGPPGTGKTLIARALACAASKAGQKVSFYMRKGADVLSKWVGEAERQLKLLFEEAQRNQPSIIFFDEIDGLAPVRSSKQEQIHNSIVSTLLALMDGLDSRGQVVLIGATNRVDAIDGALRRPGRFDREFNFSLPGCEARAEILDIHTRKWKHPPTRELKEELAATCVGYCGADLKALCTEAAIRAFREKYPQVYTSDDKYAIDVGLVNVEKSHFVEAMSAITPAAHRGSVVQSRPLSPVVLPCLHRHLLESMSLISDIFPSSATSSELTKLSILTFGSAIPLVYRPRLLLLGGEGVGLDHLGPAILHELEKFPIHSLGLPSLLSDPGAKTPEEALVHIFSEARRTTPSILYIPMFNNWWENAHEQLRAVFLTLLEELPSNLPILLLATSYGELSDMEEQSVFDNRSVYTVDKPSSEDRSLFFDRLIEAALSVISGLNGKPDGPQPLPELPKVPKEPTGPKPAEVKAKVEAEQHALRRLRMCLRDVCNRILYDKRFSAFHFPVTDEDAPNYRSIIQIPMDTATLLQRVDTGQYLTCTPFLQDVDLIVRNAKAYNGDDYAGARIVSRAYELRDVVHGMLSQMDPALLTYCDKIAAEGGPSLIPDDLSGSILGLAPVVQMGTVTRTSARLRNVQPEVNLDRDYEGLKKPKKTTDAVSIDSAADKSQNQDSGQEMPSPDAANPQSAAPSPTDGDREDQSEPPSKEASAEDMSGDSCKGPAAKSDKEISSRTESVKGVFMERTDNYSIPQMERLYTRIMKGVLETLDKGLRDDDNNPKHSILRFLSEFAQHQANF
Assay: co-IP; Anti-Flag M2 Affinity Gel on lysate of plants from crosses carrying BRAT1-Flag and BRP1-Myc or ROS1-Myc, 4 °C 2.5 h, Lysis buffer; eluted with 3xFlag peptides; western blot

binding: binds
Substance: BRP1-3xMyc (BRAT1 Partner 1, AT3G15120) (Arabidopsis thaliana)

No constants are given. Whether binding was seen depends on the method and setting. Binding seen in cells or lysates may run through a third protein. Binding calls can cover weak binding; strength is not graded here. Tags and fused reporters may be left off the sequences shown.
